Measurements taken from PMC5266272.
Results are given in words; binding and its absence hold for the method and conditions named. Some results given as binding are weak or reduced against the parent protein; the word gives no strength.

Molecular target: T1, Rbg1-TAP (S. cerevisiae (endogenous in BY4741)) (UniProt P39729)
T1 sequence: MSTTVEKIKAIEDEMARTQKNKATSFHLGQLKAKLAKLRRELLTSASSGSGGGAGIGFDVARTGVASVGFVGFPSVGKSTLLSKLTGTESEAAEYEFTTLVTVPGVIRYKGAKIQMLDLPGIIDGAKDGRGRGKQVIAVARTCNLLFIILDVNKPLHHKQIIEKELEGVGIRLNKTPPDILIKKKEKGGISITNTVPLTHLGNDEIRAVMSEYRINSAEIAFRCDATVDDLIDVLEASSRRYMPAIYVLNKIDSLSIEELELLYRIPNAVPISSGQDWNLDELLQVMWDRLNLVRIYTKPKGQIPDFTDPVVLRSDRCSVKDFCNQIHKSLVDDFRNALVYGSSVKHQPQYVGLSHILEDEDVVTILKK
Test: native gel or EMSA; Native-PAGE (NativePAGE 4-16% Bis-Tris, 1% digitonin lysate, 0.25% G-250, room temperature) of yeast lysates, immunoblotting with PAP against Rbg1-TAP; wild-type and tma46 deletion cells, and wild-type cells with vector or multicopy RBG1 or TMA46

binding: binds
B1: Tma46 (protein, UniProt Q12000 1-345)
chain: MPPKKGKQAQAAGKKKDNVDKTFGMKNKNRSTKVQKYIKQVQSQSDPKKEEMRLKKLEEKKRREAEEAERRALFNPVADQRVRAGVDPKSMVCALFKLGNCNKGAKCKFSHDLNVGRRMEKKDLYQDTRSEKENDTMDNWDEEKLRKVILSKHGNPKTTTDKVCKYFIEAVENGKYGWFWICPNGGDKCMYRHSLPEGFVLKTNEQKRLERESLEKQPKITLEEFIETERGKLDKSKLTPITIANFAQWKKDHVIAKINAEKKLSSKRKPTGREIILKMSAENKSFETDNADMPDDVTQGSAWDLTEFTDALKKADHQDDGGIKDYGDGSNPTFDIKKANSATLA
